No constants are given. Whether binding was seen depends on the method and setting. Binding seen in cells or lysates may run through a third protein. Some binding calls cover weakened binding; strength is not graded here.
Target: MOR (SMARCC1/2), endogenous (Drosophila (endogenous in larval salivary glands)) (UniProt Q9VF03)
Assay: co-IP

The chains behind the UniProt entries cited, without tags or fusion partners.
UniProt Q9VF03: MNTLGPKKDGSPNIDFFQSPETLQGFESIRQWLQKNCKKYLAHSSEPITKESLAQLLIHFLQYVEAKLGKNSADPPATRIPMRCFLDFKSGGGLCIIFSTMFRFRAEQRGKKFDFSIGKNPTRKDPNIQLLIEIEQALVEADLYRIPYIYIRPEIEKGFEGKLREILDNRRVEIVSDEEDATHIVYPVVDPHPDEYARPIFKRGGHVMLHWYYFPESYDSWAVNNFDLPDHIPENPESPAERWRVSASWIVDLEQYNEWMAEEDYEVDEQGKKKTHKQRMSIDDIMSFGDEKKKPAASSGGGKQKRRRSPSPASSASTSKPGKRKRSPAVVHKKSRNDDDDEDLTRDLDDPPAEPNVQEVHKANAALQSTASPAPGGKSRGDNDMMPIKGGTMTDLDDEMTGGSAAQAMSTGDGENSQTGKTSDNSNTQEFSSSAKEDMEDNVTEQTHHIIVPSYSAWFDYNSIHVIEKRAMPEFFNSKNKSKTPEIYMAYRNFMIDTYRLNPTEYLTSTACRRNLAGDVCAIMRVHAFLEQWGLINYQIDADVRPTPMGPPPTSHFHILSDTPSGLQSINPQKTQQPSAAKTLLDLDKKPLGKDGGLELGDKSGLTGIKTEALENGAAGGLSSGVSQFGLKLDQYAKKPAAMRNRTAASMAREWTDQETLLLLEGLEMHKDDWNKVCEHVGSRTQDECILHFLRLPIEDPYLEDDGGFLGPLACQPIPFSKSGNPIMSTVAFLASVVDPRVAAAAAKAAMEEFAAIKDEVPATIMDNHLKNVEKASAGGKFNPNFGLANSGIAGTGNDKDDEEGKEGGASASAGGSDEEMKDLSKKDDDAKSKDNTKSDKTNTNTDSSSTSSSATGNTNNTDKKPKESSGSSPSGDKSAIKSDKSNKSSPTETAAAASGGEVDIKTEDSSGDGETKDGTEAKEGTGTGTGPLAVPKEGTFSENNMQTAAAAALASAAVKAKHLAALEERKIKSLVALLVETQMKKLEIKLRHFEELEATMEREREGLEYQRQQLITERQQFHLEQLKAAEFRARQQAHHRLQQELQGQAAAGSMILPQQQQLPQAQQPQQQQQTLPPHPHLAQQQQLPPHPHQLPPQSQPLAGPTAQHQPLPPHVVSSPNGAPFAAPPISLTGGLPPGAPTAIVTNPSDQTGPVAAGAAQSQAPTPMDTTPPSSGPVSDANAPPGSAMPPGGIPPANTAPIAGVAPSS
UniProt P25439: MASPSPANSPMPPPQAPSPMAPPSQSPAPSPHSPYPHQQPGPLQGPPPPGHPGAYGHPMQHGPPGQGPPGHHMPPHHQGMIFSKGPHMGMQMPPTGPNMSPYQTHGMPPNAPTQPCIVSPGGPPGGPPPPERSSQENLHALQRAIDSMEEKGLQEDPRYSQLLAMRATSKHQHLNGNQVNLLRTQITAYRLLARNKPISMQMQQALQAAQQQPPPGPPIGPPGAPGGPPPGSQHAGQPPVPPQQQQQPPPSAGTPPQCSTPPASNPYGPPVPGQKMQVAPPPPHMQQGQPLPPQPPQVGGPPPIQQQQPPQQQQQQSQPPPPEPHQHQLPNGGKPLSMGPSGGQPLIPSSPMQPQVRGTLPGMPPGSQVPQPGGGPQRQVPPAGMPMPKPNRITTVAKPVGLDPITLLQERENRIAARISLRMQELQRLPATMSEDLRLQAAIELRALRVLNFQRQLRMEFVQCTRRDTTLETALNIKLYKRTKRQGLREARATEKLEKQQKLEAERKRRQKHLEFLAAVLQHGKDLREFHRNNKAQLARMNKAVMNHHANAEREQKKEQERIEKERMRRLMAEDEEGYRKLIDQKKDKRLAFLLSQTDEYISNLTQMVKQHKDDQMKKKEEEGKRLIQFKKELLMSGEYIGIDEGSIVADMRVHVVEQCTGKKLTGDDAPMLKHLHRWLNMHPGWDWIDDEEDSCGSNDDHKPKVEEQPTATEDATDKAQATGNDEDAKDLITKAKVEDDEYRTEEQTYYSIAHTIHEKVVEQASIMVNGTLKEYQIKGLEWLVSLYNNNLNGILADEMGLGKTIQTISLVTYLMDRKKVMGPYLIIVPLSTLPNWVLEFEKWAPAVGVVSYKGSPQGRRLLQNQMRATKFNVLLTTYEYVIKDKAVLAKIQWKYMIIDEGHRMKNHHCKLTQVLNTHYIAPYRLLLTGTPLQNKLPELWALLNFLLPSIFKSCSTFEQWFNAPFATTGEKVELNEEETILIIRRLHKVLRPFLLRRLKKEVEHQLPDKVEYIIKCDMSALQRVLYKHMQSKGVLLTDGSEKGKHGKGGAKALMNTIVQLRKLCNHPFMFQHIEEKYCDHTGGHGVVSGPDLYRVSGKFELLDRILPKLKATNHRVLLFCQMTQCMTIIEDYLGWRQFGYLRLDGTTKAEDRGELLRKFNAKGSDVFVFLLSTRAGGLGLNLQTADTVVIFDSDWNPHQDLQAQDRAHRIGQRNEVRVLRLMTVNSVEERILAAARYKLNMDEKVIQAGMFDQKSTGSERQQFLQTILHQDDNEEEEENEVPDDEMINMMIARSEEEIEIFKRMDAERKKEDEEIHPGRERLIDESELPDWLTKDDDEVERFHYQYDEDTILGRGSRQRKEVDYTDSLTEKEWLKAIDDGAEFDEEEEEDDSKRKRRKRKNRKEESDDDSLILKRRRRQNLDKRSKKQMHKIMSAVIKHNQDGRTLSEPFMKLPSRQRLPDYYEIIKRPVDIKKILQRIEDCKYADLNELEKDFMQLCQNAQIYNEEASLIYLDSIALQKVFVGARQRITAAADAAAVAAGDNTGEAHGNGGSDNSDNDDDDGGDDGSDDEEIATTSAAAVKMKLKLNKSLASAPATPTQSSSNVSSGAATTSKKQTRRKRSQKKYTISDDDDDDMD
UniProt Q24090: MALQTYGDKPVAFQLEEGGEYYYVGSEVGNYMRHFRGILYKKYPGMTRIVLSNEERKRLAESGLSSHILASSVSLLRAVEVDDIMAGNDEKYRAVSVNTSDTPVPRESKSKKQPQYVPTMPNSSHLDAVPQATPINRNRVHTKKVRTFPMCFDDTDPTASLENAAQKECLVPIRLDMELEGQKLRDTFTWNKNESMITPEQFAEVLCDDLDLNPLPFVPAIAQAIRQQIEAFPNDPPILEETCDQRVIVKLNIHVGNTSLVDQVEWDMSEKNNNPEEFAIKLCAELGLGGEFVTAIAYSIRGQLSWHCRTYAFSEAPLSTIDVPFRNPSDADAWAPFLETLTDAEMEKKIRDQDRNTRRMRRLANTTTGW

binding | Substance
binds | GFP-BRM expressed in 3rd instar larval salivary glands of transgenic Drosophila (from UniProt P25439 1-1638)
binds | GFP-SNR1 expressed in larval salivary glands of transgenic Drosophila (from UniProt Q24090 1-370)

Reference: doi:10.1101/2021.04.23.441173
